In ChEMBL document CHEMBL1671662, “In vitro activities of telavancin and six comparator agents against anaerobic bacterial isolates” (2009):
≈ marks a conversion by molar mass, not a printed value.

Experiments:
Assay type in all cases: functional
[1] = test system: Enterocloster clostridioformis; assay: Antibacterial activity against Clostridium clostridioforme by CLSI M11-A6 agar dilution method
Clostridium bartlettii = assay: Antibacterial activity against Clostridium bartlettii by CLSI M11-A6 agar dilution method; conditions: Intestinibacter bartlettii
Clostridium beijerinckii = assay: Antibacterial activity against Clostridium beijerinckii by CLSI M11-A6 agar dilution method
[2] = test system: Paraclostridium bifermentans; assay: Antibacterial activity against Clostridium bifermentans by CLSI M11-A6 agar dilution method
Clostridium butyricum = assay: Antibacterial activity against Clostridium butyricum by CLSI M11-A6 agar dilution method
[3] = test system: Clostridium celerecrescens; assay: Antibacterial activity against Clostridium celerecrescens by CLSI M11-A6 agar dilution method; conditions: Lacrimispora celerecrescens
Clostridium disporicum = assay: Antibacterial activity against Clostridium disporicum by CLSI M11-A6 agar dilution method
Clostridium glycolicum = assay: Antibacterial activity against Clostridium glycolicum by CLSI M11-A6 agar dilution method; conditions: Terrisporobacter glycolicus
Clostridium = assay: Antibacterial activity against Clostridium hypermegas by CLSI M11-A6 agar dilution method
Clostridium leptum = assay: Antibacterial activity against Clostridium leptum by CLSI M11-A6 agar dilution method
Flavonifractor plautii = assay: Antibacterial activity against Clostridium orbiscindens by CLSI M11-A6 agar dilution method
[4] = test system: Clostridium paraputrificum; assay: Antibacterial activity against Clostridium paraputrificum by CLSI M11-A6 agar dilution method
Clostridium scindens = assay: Antibacterial activity against Clostridium scindens by CLSI M11-A6 agar dilution method
[5] = test system: Paeniclostridium sordellii; assay: Antibacterial activity against Clostridium sordellii by CLSI M11-A6 agar dilution method; conditions: Paraclostridium sordellii
Clostridium spiroforme = assay: Antibacterial activity against Clostridium spiroforme by CLSI M11-A6 agar dilution method; conditions: Thomasclavelia spiroformis
Clostridium sporogenes = assay: Antibacterial activity against Clostridium sporogenes by CLSI M11-A6 agar dilution method
[6] = test system: Clostridium sporosphaeroides; assay: Antibacterial activity against Clostridium sporosphaeroides by CLSI M11-A6 agar dilution method; conditions: Faecalispora sporosphaeroides
Clostridium tertium = assay: Antibacterial activity against Clostridium tertium by CLSI M11-A6 agar dilution method
Clostridium sp. = assay: Antibacterial activity against Clostridium sp. by CLSI M11-A6 agar dilution method
Ruminococcus sp. = assay: Antibacterial activity against Ruminococcus sp. by CLSI M11-A6 agar dilution method
Anaerococcus prevotii = assay: Antibacterial activity against Anaerococcus prevotii by CLSI M11-A6 agar dilution method
Anaerococcus tetradius = assay: Antibacterial activity against Anaerococcus tetradius by CLSI M11-A6 agar dilution method
Finegoldia magna = assay: Antibacterial activity against Finegoldia magna by CLSI M11-A6 agar dilution method
[7] = test system: Peptoniphilus asaccharolyticus; assay: Antibacterial activity against Peptoniphilus asaccharolyticus by CLSI M11-A6 agar dilution method
[8] = test system: Peptostreptococcus anaerobius; assay: Antibacterial activity against Peptostreptococcus anaerobius by CLSI M11-A6 agar dilution method
Parvimonas micra = assay: Antibacterial activity against Peptostreptococcus micros by CLSI M11-A6 agar dilution method
Streptococcus anginosus = assay: Antibacterial activity against Streptococcus anginosus by CLSI M11-A6 agar dilution method
[9] = test system: Streptococcus constellatus; assay: Antibacterial activity against Streptococcus constellatus by CLSI M11-A6 agar dilution method
[10] = test system: Streptococcus intermedius; assay: Antibacterial activity against Streptococcus intermedius by CLSI M11-A6 agar dilution method

## CCC[C@@H]1C[C@@H](C(=O)N[C@@H]([C@H]2O[C@H](SC)[C@H](O)[C@@H](O)[C@H]2O)[C@H](C)Cl)N(C)C1 [CLINDAMYCIN]
[1]
  MIC50: 0.25 µg/mL (≈ 0.588 µM)
Clostridium bartlettii
  MIC50: 0.25 µg/mL (≈ 0.588 µM)
Clostridium beijerinckii
  MIC50: 0.25 µg/mL (≈ 0.588 µM)
[2]
  MIC50: 0.25 µg/mL (≈ 0.588 µM)
Clostridium butyricum
  MIC50: 0.25 µg/mL (≈ 0.588 µM)
[3]
  MIC50: 0.25 µg/mL (≈ 0.588 µM)
Clostridium disporicum
  MIC50: 0.25 µg/mL (≈ 0.588 µM)
Clostridium glycolicum
  MIC50: 0.25 µg/mL (≈ 0.588 µM)
Clostridium
  MIC50: 0.25 µg/mL (≈ 0.588 µM)
  MIC90: 4 µg/mL (≈ 9.41 µM)
Clostridium leptum
  MIC50: 0.25 µg/mL (≈ 0.588 µM)
Flavonifractor plautii
  MIC50: 0.25 µg/mL (≈ 0.588 µM)
[4]
  MIC50: 0.25 µg/mL (≈ 0.588 µM)
Clostridium scindens
  MIC50: 0.25 µg/mL (≈ 0.588 µM)
[5]
  MIC50: 0.25 µg/mL (≈ 0.588 µM)
Clostridium spiroforme
  MIC50: 0.25 µg/mL (≈ 0.588 µM)
Clostridium sporogenes
  MIC50: 0.25 µg/mL (≈ 0.588 µM)
[6]
  MIC50: 0.25 µg/mL (≈ 0.588 µM)
Clostridium tertium
  MIC50: 0.25 µg/mL (≈ 0.588 µM)
Clostridium sp.
  MIC50: 0.25 µg/mL (≈ 0.588 µM)
Ruminococcus sp.
  MIC50: 0.25 µg/mL (≈ 0.588 µM)
Anaerococcus prevotii
  MIC50: 0.25 µg/mL (≈ 0.588 µM)
Anaerococcus tetradius
  MIC50: 0.25 µg/mL (≈ 0.588 µM)
Finegoldia magna
  MIC50: 0.25 µg/mL (≈ 0.588 µM)
[7]
  MIC50: 0.25 µg/mL (≈ 0.588 µM)
[8]
  MIC50: 0.25 µg/mL (≈ 0.588 µM)
Parvimonas micra
  MIC50: 0.25 µg/mL (≈ 0.588 µM)
Streptococcus anginosus
  MIC50: 0.25 µg/mL (≈ 0.588 µM)
[9]
  MIC50: 0.25 µg/mL (≈ 0.588 µM)
[10]
  MIC50: 0.25 µg/mL (≈ 0.588 µM)
